Substitutions are numbered along the chain they refer to. Names may count otherwise. Some results were stated once for a whole list of compounds, not compound by compound.
B1: A328R: point mutant of SEQ ID NO: 109 (protein)
chain: MAQGKVALEEHFAIPETLQDSAGFVPGDYWKELQHRLLDIQDTRLKLMDAHGIETMILSLNAPAVQAIPDRRKAIEIARRANDVLAEECAKRPDRFLAFAALPLQDPDAATEELQRCVNDLGFVGALVNGFSQEGDGQTPLYYDLPQYRPFWGEVEKLDVPFYLHPRNPLPQDSRIYDGHPWLLGPTWAFAQETAVHALRLMASGLFDEHPRLNIILGHMGEGLPYMMWRIDHRVAWVKLPPRYPAKRRFMDYFNENFHITTSGNFRTQTLIDAILEIGADRILFSTDWPFENIDHASDWFNATSIAEADRVKIGRTNARRLFKLDGR
modifications: Dicamba decarboxylase variant clone: DC.4.032
B2: G27S: point mutant of SEQ ID NO: 109 (protein)
chain: B1 chain with G27S, R328A
modifications: Dicamba decarboxylase variant clone: DC.4.032
B3: G27T: point mutant of SEQ ID NO: 109 (protein)
chain: B1 chain with G27T, R328A
modifications: Dicamba decarboxylase variant clone: DC.4.032
B4: L38I: point mutant of SEQ ID NO: 109 (protein)
chain: B1 chain with L38I, R328A
modifications: Dicamba decarboxylase variant clone: DC.4.032
B5: D42A: point mutant of SEQ ID NO: 109 (protein)
chain: B1 chain with D42A, R328A
modifications: Dicamba decarboxylase variant clone: DC.4.032
B6: D42M: point mutant of SEQ ID NO: 109 (protein)
chain: B1 chain with D42M, R328A
modifications: Dicamba decarboxylase variant clone: DC.4.032
B7: D42S: point mutant of SEQ ID NO: 109 (protein)
chain: B1 chain with D42S, R328A
modifications: Dicamba decarboxylase variant clone: DC.4.032
B8: G52E: point mutant of SEQ ID NO: 109 (protein)
chain: B1 chain with G52E, R328A
modifications: Dicamba decarboxylase variant clone: DC.4.032
B9: SEQ ID NO: 123: N61A of SEQ ID NO: 109 (protein)
chain: B1 chain with N61A, R328A
modifications: Dicamba decarboxylase variant clone: S03902153
B10: E16A: point mutant of SEQ ID NO: 109 (protein)
chain: B1 chain with E16A, R328A
modifications: Dicamba decarboxylase variant clone: DC.4.032
B11: P63V: point mutant of SEQ ID NO: 109 (protein)
chain: B1 chain with P63V, R328A
modifications: Dicamba decarboxylase variant clone: DC.4.032

Experiment: Saturation mutagenesis of SEQ ID NO:109: dicamba decarboxylation activity of point mutants (carbon dioxide released)
Conditions: point mutation in SEQ ID NO:109

| Molecule | dicamba decarboxylation activity compared to SEQ ID NO:109 |
| --- | --- |
| B1 | more than 2.0 fold |
| B2 | more than 2.0 fold |
| B3 | more than 2.0 fold |
| B4 | more than 2.0 fold |
| B5 | more than 2.0 fold |
| B6 | more than 2.0 fold |
| B7 | more than 2.0 fold |
| B8 | more than 2.0 fold |
| B9 | more than 2.0 fold |
| B10 | greater than 1.8 fold |
| B11 | greater than 1.8 fold |
